# The other results are listed elsewhere or left out.
# The chains behind the UniProt entries cited, without tags or fusion partners. Where a name states a change or a piece, a line headed by the entry shows the natural chain unless it says otherwise.
# UniProt Q9H6K1: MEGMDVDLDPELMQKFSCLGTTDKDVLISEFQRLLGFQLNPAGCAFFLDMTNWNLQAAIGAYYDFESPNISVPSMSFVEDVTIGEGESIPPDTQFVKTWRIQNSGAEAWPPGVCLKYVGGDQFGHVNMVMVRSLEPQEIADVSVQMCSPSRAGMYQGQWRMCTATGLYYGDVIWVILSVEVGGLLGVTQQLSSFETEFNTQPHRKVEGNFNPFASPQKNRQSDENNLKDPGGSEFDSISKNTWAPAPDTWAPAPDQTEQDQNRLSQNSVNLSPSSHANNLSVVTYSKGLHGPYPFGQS
# UniProt Q06187: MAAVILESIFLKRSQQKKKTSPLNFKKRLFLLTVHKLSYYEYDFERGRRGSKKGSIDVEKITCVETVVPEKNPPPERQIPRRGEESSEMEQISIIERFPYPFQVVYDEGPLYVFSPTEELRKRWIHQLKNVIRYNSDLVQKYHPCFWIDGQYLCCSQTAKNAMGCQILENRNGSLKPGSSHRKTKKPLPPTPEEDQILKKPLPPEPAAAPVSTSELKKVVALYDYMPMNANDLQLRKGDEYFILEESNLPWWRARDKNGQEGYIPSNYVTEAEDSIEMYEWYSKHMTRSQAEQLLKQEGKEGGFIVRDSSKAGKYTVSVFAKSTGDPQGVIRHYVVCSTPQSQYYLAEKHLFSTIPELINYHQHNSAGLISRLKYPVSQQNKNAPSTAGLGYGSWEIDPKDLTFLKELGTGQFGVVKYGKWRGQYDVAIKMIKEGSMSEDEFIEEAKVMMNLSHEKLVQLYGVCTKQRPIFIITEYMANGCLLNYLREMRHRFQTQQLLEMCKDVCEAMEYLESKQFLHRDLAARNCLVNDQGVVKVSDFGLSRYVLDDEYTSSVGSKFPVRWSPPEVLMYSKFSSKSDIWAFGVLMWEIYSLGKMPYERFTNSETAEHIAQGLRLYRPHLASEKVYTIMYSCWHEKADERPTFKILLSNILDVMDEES
# UniProt Q86VP6: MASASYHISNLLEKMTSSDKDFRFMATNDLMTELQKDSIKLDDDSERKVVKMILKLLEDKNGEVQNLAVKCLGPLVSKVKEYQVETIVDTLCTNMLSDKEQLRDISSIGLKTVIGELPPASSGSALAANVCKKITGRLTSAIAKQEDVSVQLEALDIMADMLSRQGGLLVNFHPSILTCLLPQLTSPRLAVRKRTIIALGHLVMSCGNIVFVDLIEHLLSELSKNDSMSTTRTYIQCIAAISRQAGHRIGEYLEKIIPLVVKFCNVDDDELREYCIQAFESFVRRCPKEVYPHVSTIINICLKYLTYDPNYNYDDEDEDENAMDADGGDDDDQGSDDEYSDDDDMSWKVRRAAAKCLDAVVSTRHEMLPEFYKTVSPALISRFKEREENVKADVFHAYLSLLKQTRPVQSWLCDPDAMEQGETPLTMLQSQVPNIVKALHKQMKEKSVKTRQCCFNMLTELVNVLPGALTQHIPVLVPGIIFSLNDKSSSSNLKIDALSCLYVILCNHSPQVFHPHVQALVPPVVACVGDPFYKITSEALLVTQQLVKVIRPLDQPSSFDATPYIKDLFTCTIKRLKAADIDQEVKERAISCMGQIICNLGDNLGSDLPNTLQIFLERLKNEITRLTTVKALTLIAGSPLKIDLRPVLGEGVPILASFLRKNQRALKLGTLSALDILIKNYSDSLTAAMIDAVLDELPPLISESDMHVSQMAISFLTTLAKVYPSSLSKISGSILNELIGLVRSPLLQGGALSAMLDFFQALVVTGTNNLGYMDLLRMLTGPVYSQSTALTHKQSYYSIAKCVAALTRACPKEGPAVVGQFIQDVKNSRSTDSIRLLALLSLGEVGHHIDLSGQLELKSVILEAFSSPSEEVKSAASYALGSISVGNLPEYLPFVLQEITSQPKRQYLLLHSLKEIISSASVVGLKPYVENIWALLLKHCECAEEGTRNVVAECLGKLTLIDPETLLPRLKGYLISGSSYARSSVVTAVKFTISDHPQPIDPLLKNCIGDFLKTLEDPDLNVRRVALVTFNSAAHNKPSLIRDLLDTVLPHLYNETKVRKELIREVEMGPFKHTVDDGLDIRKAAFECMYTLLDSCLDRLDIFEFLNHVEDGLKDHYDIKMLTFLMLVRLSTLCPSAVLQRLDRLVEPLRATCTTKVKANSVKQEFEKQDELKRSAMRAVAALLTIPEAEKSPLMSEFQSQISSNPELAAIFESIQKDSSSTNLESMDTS
# UniProt O14523: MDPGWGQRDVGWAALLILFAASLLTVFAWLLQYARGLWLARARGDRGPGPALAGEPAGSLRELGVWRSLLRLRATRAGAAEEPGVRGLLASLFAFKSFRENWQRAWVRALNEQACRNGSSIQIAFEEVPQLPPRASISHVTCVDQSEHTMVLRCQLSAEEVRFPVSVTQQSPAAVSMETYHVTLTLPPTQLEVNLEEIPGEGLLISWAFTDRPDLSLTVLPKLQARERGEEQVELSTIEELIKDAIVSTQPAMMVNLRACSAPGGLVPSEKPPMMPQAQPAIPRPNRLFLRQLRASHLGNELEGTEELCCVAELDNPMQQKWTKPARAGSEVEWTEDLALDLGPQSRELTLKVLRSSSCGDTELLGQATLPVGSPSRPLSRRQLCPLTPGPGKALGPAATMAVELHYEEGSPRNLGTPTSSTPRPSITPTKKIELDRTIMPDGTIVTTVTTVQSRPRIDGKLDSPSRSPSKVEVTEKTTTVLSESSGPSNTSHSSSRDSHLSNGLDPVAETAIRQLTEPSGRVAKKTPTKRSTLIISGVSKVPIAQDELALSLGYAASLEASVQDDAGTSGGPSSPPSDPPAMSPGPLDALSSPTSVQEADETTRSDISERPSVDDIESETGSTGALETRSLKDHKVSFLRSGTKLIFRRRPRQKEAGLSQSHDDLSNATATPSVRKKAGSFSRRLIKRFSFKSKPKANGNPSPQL
# UniProt O43684, whole entry, looked up: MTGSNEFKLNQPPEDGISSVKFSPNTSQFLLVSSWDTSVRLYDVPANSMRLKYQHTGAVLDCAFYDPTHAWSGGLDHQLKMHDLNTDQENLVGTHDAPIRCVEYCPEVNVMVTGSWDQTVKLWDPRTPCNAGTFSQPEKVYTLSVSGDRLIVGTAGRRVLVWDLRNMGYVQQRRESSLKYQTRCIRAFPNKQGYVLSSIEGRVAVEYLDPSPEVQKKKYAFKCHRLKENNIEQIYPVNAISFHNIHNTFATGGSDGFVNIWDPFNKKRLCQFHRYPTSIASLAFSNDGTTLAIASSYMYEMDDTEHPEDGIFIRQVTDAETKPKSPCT
# UniProt Q5VW32: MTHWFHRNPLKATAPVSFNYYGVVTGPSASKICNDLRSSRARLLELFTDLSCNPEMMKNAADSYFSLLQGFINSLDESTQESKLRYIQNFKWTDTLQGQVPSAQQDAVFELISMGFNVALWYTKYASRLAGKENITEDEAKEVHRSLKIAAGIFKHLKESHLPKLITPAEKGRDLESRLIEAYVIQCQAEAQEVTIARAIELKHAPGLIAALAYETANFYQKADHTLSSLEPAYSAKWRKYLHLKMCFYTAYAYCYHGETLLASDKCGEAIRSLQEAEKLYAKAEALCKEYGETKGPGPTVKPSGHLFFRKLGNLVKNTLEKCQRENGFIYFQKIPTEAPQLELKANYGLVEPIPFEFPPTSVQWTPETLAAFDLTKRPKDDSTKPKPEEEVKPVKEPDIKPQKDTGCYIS
# UniProt Q5JPI3: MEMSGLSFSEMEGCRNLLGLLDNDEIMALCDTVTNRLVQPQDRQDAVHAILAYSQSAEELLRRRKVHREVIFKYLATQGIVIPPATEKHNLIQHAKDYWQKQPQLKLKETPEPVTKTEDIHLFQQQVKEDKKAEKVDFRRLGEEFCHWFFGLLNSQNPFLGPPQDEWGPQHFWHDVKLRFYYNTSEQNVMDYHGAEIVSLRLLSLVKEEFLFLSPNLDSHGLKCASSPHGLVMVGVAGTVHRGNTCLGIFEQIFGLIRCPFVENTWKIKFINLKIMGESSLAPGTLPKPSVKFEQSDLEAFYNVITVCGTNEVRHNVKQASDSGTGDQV
# UniProt Q13557, whole entry, looked up: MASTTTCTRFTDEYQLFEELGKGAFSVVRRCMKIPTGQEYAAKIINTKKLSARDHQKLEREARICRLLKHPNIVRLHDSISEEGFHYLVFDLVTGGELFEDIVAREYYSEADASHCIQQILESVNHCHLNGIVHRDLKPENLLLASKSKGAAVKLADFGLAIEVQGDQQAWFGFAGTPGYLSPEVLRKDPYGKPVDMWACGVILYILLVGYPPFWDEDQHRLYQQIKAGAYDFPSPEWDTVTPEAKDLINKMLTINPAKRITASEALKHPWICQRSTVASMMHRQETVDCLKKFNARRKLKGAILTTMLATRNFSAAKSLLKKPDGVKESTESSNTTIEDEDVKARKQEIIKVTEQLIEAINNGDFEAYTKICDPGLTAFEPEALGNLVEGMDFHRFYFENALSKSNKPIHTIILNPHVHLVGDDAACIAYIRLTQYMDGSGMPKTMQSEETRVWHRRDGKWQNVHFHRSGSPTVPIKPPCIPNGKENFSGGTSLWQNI
# UniProt Q13555: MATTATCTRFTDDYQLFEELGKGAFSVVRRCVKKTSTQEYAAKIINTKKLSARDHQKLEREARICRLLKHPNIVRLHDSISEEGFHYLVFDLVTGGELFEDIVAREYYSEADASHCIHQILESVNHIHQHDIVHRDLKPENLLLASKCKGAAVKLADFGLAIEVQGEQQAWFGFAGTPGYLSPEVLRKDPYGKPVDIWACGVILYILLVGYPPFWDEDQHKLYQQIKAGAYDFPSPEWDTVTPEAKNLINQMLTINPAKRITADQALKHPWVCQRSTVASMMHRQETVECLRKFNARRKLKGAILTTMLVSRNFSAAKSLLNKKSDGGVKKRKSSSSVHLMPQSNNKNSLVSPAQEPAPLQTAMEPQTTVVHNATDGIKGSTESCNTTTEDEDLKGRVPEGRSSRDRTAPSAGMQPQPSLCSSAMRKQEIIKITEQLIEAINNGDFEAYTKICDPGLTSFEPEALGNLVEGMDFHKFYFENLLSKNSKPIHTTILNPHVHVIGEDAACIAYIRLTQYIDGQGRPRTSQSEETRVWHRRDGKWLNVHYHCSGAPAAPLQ
# UniProt Q86Y37: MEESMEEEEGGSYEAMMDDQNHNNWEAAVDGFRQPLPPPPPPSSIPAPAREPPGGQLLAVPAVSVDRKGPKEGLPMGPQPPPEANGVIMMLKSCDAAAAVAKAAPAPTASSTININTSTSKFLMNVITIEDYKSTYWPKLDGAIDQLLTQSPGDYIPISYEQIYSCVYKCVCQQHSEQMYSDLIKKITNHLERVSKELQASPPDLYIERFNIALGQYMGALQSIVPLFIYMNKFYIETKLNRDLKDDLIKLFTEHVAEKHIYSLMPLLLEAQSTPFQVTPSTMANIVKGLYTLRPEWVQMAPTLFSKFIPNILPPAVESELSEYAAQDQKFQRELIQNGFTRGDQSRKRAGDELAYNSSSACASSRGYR
# UniProt Q9NS00: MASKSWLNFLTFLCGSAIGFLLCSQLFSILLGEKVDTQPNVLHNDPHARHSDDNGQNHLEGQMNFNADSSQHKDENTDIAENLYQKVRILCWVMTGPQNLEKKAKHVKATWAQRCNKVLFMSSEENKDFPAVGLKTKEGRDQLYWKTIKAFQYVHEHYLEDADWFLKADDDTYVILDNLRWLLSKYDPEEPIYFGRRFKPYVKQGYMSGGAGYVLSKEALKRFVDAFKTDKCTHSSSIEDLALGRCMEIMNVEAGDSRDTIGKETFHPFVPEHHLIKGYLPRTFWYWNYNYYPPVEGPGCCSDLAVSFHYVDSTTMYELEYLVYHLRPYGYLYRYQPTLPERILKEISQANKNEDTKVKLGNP
# UniProt Q9BSF8: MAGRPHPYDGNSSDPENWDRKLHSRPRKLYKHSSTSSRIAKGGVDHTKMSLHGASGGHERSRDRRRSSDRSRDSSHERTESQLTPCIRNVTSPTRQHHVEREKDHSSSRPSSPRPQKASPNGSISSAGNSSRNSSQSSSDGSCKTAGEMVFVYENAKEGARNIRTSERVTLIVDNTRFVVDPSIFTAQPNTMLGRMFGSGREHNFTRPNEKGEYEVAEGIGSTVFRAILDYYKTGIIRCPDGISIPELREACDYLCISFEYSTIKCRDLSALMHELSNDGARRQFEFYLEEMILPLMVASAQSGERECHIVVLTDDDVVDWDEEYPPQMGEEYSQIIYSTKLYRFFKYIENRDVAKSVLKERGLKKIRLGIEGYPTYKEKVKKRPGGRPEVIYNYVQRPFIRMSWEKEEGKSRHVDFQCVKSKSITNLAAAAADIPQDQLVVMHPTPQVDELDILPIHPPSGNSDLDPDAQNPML
# UniProt Q9BRJ6: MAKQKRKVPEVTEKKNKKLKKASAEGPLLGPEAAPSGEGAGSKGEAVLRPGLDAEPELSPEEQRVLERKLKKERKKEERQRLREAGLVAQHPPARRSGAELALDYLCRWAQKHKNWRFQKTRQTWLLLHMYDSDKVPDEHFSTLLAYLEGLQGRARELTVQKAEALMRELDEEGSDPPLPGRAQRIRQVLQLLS
# Compound: Cc1cc(ccc1-c1ccccc1)C(=O)N1CCCN(CC1)C(=O)CCl [compound 10]
# Experiment: probe-labelled cysteine peptide fold change vs DMSO (competition) (log2 fold change); higher = less target engagement (more negative = stronger competition)
# Conditions: 50 µM; THP-1; incubation time: 4 h
# 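Also: competitive profiling in live THP-1 cells: cysteine peptides tagged with an iodoacetamide desthiobiotin (IA-DTB) probe, intensity after compound treatment relative to DMSO-treated cells.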
row,Target,probe-labelled cysteine peptide fold change
1,C6orf106_Q9H6K1_18_FSCLGTTDK (UniProt Q9H6K1),-0.525
2,BTK_Q06187_527_NCLVNDQGVVK (UniProt Q06187),-0.335
3,CAND1_Q86VP6_1153_ATCTTK (UniProt Q86VP6),-0.122
4,C2CD2L_O14523_385_RQLCPLTPGPGK (UniProt O14523),0.00256
5,CALCOCO2_Q13137_321_LSENEIICNALQR (UniProt Q13137),-0.107
6,BRCA2_P51587_1399_AQEACHGNTSNK (UniProt P51587),-0.571
7,BUB3_O43684_62_YQHTGAVLDCAFYDPTHAWSGGLDHQLK (UniProt O43684),0.1
8,BROX_Q5VW32_52_LLELFTDLSCNPEMMK (UniProt Q5VW32),-0.0054
9,C3orf38_Q5JPI3_224_CASSPHGLVMVGVAGTVHR (UniProt Q5JPI3),0.173
10,CAMK2D_Q13557_7_ASTTTCTR (UniProt Q13557),0.378
11,CAMK2G_Q13555_290_QETVECLR (UniProt Q13555),0.101
12,CACUL1_Q86Y37_362_AGDELAYNSSSACASSR (UniProt Q86Y37),-0.642
13,C1GALT1_Q9NS00_232_CTHSSSIEDLALGR (UniProt Q9NS00),-0.139
14,BTAF1_O14981_1290_LHGILCDDMGLGK (UniProt O14981),-0.174
15,BTBD10_Q9BSF8_239_CPDGISIPELR (UniProt Q9BSF8),-0.712
16,C7orf50_Q9BRJ6_107_SGAELALDYLCR (UniProt Q9BRJ6),0.192
17,C20orf27_Q9GZN8_156_CVGAELEYDSEHSDWHGFD (UniProt Q9GZN8),-0.261

# Looked up one by one from above (two):
row,Target,probe-labelled cysteine peptide fold change
13,C1GALT1_Q9NS00_232_CTHSSSIEDLALGR (UniProt Q9NS00),-0.139
11,CAMK2G_Q13555_290_QETVECLR (UniProt Q13555),0.101

# From the supplement of paper PMC12067093, “Discovery and optimisation of a covalent ligand for TRIM25 and its application to targeted protein ubiquitination” (Chemical Science, 2025)
